The other results are listed elsewhere or left out. Most entries show no effect beyond the scatter of the controls.
The targets below were run with Cc1nc(Nc2ncc(C(=O)Nc3c(C)cccc3Cl)s2)cc(N2CCN(CCO)CC2)n1 [dasatinib] (assay: log2 fold change of tryptic peptide abundance, ligand vs vehicle (limited proteolysis) (log2 ratio); higher = more trypsin-susceptible (destabilized)). Details: ligand concentration: 5 uM; sample: K562 cleared lysate.

The chains behind the UniProt entries cited, without tags or fusion partners. Where a name states a change or a piece, a line headed by the entry shows the natural chain unless it says otherwise.
UniProt Q7KZI7: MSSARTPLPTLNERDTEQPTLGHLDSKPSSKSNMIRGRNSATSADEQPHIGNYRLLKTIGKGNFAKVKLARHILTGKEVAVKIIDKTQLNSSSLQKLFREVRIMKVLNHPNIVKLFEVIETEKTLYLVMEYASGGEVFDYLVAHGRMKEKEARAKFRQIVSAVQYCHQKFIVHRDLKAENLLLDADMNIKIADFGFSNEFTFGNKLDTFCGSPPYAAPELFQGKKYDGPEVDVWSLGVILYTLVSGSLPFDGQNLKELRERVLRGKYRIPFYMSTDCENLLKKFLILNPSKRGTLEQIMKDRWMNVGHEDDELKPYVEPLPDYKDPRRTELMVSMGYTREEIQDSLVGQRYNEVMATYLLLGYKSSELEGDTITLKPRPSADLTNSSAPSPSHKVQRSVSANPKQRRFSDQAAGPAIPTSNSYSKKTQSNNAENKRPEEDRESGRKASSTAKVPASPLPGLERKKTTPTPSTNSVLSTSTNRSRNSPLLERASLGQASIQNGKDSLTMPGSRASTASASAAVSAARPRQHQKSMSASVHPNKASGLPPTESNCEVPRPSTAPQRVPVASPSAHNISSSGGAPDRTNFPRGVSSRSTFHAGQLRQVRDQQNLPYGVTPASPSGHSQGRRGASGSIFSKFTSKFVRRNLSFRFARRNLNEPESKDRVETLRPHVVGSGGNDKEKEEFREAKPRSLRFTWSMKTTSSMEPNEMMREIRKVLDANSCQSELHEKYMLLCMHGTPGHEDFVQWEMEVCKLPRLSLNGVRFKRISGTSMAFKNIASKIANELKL
UniProt Q7Z4G4: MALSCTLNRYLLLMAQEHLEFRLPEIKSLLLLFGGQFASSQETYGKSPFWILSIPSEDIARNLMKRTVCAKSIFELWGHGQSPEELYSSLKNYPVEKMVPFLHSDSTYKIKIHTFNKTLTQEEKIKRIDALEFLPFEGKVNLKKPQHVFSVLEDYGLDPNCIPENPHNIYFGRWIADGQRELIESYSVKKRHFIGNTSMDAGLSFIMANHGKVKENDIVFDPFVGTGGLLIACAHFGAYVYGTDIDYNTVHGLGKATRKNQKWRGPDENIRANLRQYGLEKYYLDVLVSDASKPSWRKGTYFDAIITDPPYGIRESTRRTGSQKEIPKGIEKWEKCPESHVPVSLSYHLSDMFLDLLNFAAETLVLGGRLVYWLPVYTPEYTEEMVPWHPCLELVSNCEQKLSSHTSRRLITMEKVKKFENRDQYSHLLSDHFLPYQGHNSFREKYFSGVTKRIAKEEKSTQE
UniProt Q7Z7A4: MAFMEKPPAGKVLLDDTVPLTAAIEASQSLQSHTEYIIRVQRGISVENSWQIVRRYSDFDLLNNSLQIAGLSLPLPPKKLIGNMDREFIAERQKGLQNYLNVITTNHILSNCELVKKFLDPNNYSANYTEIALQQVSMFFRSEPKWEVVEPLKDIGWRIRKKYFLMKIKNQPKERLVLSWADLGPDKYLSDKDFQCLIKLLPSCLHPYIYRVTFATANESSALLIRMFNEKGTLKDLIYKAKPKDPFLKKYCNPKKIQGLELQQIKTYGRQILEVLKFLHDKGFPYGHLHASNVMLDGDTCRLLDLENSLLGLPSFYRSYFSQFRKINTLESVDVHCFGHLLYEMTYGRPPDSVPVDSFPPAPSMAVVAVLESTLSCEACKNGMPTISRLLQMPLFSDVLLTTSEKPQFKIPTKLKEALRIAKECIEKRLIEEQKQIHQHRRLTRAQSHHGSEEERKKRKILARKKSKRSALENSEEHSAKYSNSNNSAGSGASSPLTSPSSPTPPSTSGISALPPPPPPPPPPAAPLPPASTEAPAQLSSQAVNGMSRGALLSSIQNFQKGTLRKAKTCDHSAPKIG
UniProt Q7L2H7, whole entry: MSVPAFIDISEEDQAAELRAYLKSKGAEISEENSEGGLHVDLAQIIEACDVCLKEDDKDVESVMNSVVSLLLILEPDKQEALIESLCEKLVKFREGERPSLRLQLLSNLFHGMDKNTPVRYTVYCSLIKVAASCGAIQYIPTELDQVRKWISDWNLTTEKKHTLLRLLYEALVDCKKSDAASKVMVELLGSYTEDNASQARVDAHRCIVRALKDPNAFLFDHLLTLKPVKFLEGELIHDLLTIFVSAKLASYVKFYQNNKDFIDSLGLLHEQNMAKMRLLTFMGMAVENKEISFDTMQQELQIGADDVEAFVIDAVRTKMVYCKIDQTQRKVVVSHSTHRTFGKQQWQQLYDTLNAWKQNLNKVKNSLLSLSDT
UniProt Q7Z4V5: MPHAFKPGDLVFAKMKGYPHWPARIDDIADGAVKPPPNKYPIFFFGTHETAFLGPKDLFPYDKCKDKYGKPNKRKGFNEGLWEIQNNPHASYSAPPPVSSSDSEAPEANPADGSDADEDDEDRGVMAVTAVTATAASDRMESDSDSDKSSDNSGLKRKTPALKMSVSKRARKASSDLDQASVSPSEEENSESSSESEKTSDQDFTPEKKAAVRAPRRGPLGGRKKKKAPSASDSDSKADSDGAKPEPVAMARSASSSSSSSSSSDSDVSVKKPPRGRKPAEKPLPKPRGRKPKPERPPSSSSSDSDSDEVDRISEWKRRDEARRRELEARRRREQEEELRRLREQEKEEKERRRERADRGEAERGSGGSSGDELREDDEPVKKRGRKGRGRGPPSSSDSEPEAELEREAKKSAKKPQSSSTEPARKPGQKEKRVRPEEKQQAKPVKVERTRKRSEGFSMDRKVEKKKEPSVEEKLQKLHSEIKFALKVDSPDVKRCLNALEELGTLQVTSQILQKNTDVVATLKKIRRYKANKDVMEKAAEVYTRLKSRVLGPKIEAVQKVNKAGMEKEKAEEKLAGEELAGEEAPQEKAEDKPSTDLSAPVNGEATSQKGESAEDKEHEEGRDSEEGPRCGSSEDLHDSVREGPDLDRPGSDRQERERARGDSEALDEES
UniProt Q7L266: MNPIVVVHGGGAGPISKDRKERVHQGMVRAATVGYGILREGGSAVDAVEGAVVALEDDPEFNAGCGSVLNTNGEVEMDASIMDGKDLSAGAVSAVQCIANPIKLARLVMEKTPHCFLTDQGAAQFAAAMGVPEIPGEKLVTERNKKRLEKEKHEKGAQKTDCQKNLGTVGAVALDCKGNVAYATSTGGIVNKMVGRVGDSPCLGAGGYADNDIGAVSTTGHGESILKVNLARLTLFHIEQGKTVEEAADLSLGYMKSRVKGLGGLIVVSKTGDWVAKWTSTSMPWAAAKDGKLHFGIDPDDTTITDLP
UniProt Q86SX6: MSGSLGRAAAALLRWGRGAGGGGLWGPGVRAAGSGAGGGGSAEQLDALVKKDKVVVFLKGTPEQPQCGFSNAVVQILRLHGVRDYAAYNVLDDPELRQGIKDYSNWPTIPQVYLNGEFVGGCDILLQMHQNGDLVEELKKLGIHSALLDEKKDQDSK

Row | Target | log2 fold change
1 | MARK2 (peptide sequence: VLNHPNIVK, peptide start residue: 106) (UniProt Q7KZI7) | 0.913
2 | TRMT11 (peptide sequence: EKYFSGVTK, peptide start residue: 444) (UniProt Q7Z4G4) | 0.146
3 | PXK (peptide sequence: WEVVEPLKDIGWR, peptide start residue: 146) (UniProt Q7Z7A4) | -0.645
4 | UniProt Q7L2H7 (peptide sequence: WISDWNLTTEKK, peptide start residue: 150) | -0.244
5 | UniProt Q7Z4V5 (peptide sequence: MKGYPHWPAR, peptide start residue: 15) | 0.24
6 | ASRGL1 (peptide sequence: AATVGYGILR, peptide start residue: 30) (UniProt Q7L266) | -0.0109
7 | SUPT6H (peptide sequence: LDNGVTGFIPTK, peptide start residue: 1232) (UniProt Q7KZ85) | -0.275
8 | GLRX5 (peptide sequence: DKVVVFLK, peptide start residue: 52) (UniProt Q86SX6) | 0.0449

Source: the supplement of paper PMC12819154, “High-throughput peptide-centric local stability assay extends protein–ligand identification to membrane proteins, tissues and bacteria” (Nature Structural & Molecular Biology, 2025)
